PubChem BioAssay AID1259254 | NCATS | 2017
Purpose: 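Gene knock-downs that lead to re-replication, shown by excess G2 DNA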 (primary screen). Cells: human HCT116 colorectal cancer cells. Reagent: single siRNA against human genes. Timing: 3 days. Detection: 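Nuclei stained with Hoechst and imaged; cell-cycle phase assigned by DNA content; G2 share scaled per plate, non-targeting siRNA 0%, GMNN siRNA 100%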. Direction: G2 robust z-score: higher = more G2 cells, more excess DNA replication. Hit rule: 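Active siRNAs have a G2 robust z of 5 or more median absolute deviations over the median, which in these data means about 38% or higher of GMNN control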.
Here is one part, drawn at random, of about 59,000 reagents. About 1,550 of them (2.6%) were called active. 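G2 share is only a proxy for re-replication; each gene was hit by three separate siRNAs, and active genes were retested.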 Unmarked entries are inactive. Reagents against one gene are numbered here. Further read-outs or replicates are left out here. The record does not give: the amount of reagent.

LINC02389 #1
- G2 robust z-score: -0.905

LINC02389 #2
- G2 robust z-score: 3.15

LINC02389 #3
- G2 robust z-score: 1.51

CBX3 #1
- G2 robust z-score: 0.926

CBX3 #2
- G2 robust z-score: -0.689

CBX3 #3
- G2 robust z-score: 0.378

FRMD4B #1
- G2 robust z-score: -0.859

FRMD4B #2
- G2 robust z-score: -0.0015

FRMD4B #3
- G2 robust z-score: 0.268

ZCCHC8 #1
- G2 robust z-score: 0.65

ZCCHC8 #2
- G2 robust z-score: 0.179

ZCCHC8 #3
- G2 robust z-score: 1.33

Individual results from the list.
LINC02389 #1, G2 robust z-score = -0.905
Result of CBX3 #3 under “G2 robust z-score”: 0.378
